From the supplement of paper PMC4604168 (melanoma cell lines)
The other results are listed elsewhere or left out. Repeats are few or missing, and single values can be far off.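 Cells were imaged in 1,536-well plates, and nuclei stained with an antibody against cleaved PARP were counted against all DNA-stained nuclei to give the apoptosis fraction. Screening doses were chosen to leave most cells alive, and resting and induced cleaved-PARP levels differ strongly between cell lines.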

system: COLO792; experiment: cleaved PARP positive nuclei fraction relative to DMSO control; melanoma cells; higher = more apoptosis; details: library dose: low library concentration; 72 h

In order of falling “cleaved PARP positive nuclei fraction” value:
1. C#Cc1cccc(Nc2ncnc3cc(OCCOC)c(OCCOC)cc23)c1 [erlotinib] + O=C(Oc1ccc([N+](=O)[O-])cc1)N1CCC(C(O)(c2ccc3c(c2)OCO3)c2ccc3c(c2)OCO3)CC1 [JZL184] (first compound 0.8 µM, partner dose 1 µM)  234%
2. Cn1cncc1[C@@](N)(c1ccc(Cl)cc1)c1ccc2c(c1)c(-c1cccc(Cl)c1)cc(=O)n2C [tipifarnib] + C/C(O)=C(\C#N)C(=O)Nc1cc(Br)ccc1Br [LFM-A13] (first compound 0.01 µM, partner dose 2 µM)  192%
3. C/C(O)=C(\C#N)C(=O)Nc1cc(Br)ccc1Br + Cn1cc(/C=C2\C(=O)Nc3cccnc32)c2ccccc21 [GW441756] (first compound 2 µM, partner dose 0.4 µM)  172%
4. Cc1cc(SCc2sc(-c3ccc(C(F)(F)F)c(F)c3)nc2C)ccc1OCC(=O)O + c1cc(-c2cnn3cc(-c4ccc(OCCN5CCCCC5)cc4)cnc23)ccn1 [Dorsomorphin] (first compound 2 µM, partner dose 0.4 µM)  168%
5. Cn1cncc1[C@@](N)(c1ccc(Cl)cc1)c1ccc2c(c1)c(-c1cccc(Cl)c1)cc(=O)n2C [tipifarnib] + Cc1cc(SCc2sc(-c3ccc(C(F)(F)F)c(F)c3)nc2C)ccc1OCC(=O)O [GW0742] (first compound 0.01 µM, partner dose 2 µM)  167%
6. C[As](C)SC[C@H](NC(=O)CC[C@H](N)C(=O)O)C(=O)NCC(=O)O [Darinaparsin] + CCCCCCCCCCCC1=C(O)C(=O)C=C(O)C1=O [Embelin] (first compound 0.4 µM, partner dose 1.2 µM)  140%
7. OCCn1cc(-c2cnc3nnn(Cc4ccc5ncccc5c4)c3n2)cn1 + Cc1cc(SCc2sc(-c3ccc(C(F)(F)F)c(F)c3)nc2C)ccc1OCC(=O)O [GW0742] (first compound 1 µM, partner dose 2 µM)  134%
8. C/C(O)=C(\C#N)C(=O)Nc1cc(Br)ccc1Br + CC(C)CCN1c2nc(Nc3cc(F)c(O)c(F)c3)ncc2N(C)C(=O)C1C [BID1870] (first compound 2 µM, partner dose 0.2 µM)  108%
9. O=C(O)c1ccc(-c2c[nH]c3ncc(-c4ccccc4)cc23)cc1C1CCCC1 + Cc1cc(SCc2sc(-c3ccc(C(F)(F)F)c(F)c3)nc2C)ccc1OCC(=O)O [GW0742] (first compound 0.16 µM, partner dose 2 µM)  108%
10. Oc1nc(-c2ccc(C(F)(F)F)cc2)nc2c1CSCC2 + O=C(Oc1ccc([N+](=O)[O-])cc1)N1CCC(C(O)(c2ccc3c(c2)OCO3)c2ccc3c(c2)OCO3)CC1 [JZL184] (first compound 2 µM, partner dose 1 µM)  99.6%
11. COCC[n+]1c2c(n(Cc3cnccn3)c1C)C(=O)c1ccccc1C2=O + Cc1cc(SCc2sc(-c3ccc(C(F)(F)F)c(F)c3)nc2C)ccc1OCC(=O)O [GW0742] (first compound 0.0004 µM, partner dose 2 µM)  98.5%
12. CC(C)(C)c1cnc(CSc2cnc(NC(=O)C3CCNCC3)s2)o1 + C/C(O)=C(\C#N)C(=O)Nc1cc(Br)ccc1Br [LFM-A13] (first compound 0.01 µM, partner dose 2 µM)  93.5%
13. Cc1cc(SCc2sc(-c3ccc(C(F)(F)F)c(F)c3)nc2C)ccc1OCC(=O)O + Cc1cc([N+](=O)[O-])ccc1NS(=O)(=O)c1cc(Cl)ccc1Cl [FH535] (first compound 2 µM, partner dose 1 µM)  91.2%
14. Cc1ccc(NC(=O)c2cccc(N(C)C)c2)cc1NC(=O)c1ccc(O)cc1 + C/C(O)=C(\C#N)C(=O)Nc1cc(Br)ccc1Br [LFM-A13] (first compound 2 µM, partner dose 2 µM)  90.3%
15. c1cc(-c2cnn3cc(-c4ccc(OCCN5CCCCC5)cc4)cnc23)ccn1 [Dorsomorphin] + O=C(Oc1ccc([N+](=O)[O-])cc1)N1CCC(C(O)(c2ccc3c(c2)OCO3)c2ccc3c(c2)OCO3)CC1 [JZL184] (first compound 0.4 µM, partner dose 1 µM)  70.3%
16. C[As](C)SC[C@H](NC(=O)CC[C@H](N)C(=O)O)C(=O)NCC(=O)O [Darinaparsin] + Cc1cc(SCc2sc(-c3ccc(C(F)(F)F)c(F)c3)nc2C)ccc1OCC(=O)O [GW0742] (first compound 0.4 µM, partner dose 2 µM)  62.1%
